For 40 sequences, binding signal results are on record in PMC7862700.

Only a part is listed here, and it is no random draw. At the low end of the ranking, values are background and their order means little.

The assay has as its target SPI1 (UniProt P17947). Put plainly: DAPPL (digital affinity profiling via proximity ligation, sequencing). The following applies: 10 mM Tris-HCl pH 7.5, 50 mM NaCl, 1 mM DTT, 4% glycerol, room temperature, 30 min; GST-TFs on glutathione beads, 16-mer random dsDNA library, 0.1% …; high values mean tight binding; double strand, one strand shown; scale: fold enrichment (6-mer frequency, TF over GST control).
Consider GGTGTG, for which the binding signal came to 0.719.
Turning to GCCATA, the binding signal amounted to 0.952.
In the case of AGAGGT, the binding signal is 0.744.
In turn, GTAAGG returned a binding signal of 0.713.
Sequence CAAGGC registered a binding signal of 0.86.
GCATTG displayed a binding signal of 0.759.
The value for GTAACG was 0.958; that for GCATAT was 0.937; that for GGTACG was 0.826.
In turn, GGTCCG displayed a binding signal of 0.766.
For CACGTC, the binding signal turned out to be 0.907.
With GCAGTT, the binding signal stood at 0.823.
AAAGGA: the binding signal is 0.882.
With TAGAGC, the binding signal worked out at 0.753.
AGTTGT had a binding signal of 0.832.
Sequence AGTCGA registered a binding signal of 0.447.
Turning to CCTGAG, the binding signal came out at 0.712.
As for TCAGTG, the binding signal turned out to be 0.817.
TTCGGA yielded a binding signal of 0.719.
For GGCGCG the value was 0.656; for GAGGGA, 0.512.
Turning to GACCCT, the binding signal was found to be 0.813.
For GGGCGA the value was 0.8; for AGACGG, 0.332.
GGGTCC showed a binding signal of 0.772.
For CGGGAC the value was 0.532.
For GGACAG the value was 0.549; for AGGGGG, 0.583.
The value for CGGCGG was 0.589.
In turn, GAGACT displayed a binding signal of 0.354.
GGGGTC came in with a binding signal of 0.649.
The value for CAGAGC was 0.771.
Sequence GGCGCT registered a binding signal of 0.665.
In the case of TGCGTG, the binding signal worked out at 0.649.
The value for GGGAGG was 0.312; that for TCGGGG was 0.427; that for CGTGTT was 0.723.
The value for GGCGGT was 0.402; that for GTCTGT was 0.883.
Regarding CAGCTG, the binding signal came to 0.828.
